Results deposited as PubChem BioAssay AID1508597 (Cure First, 2020).

Test: 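Genes whose silencing sensitises or protects ovarian cancer cells against rucaparib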 (primary screen)
System: human ovarian carcinoma lines grown from tumours: OCI-P5x (papillary serous) and OCI-C5x (clear cell)
Knock-down reagent: siRNA pool against human genes, 1.25 pmol siRNA per well
Duration: 72 h or 96 h, depending on the cell culture
Treatment: rucaparib 20 µM (about IC30) or vehicle, present until read-out
Rucaparib or vehicle: Vehicle
Cell line: OCI-C5x (clear cell)
Measured: 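Luminescent ATP-based viability assay read 72 or 96 h after transfection, depending on culture, given as normalised percent viability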
Reading the numbers: viability, normalised: higher = more viable cells remaining
Call rule: 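Active when normalised viability falls below 80 percent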
Meaning of the calls: active = viability under 80%; inactive = viability 80% or more
This is an unselected part of the about 2,100 reagents, under one of the conditions tested. 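Calls flag viability under 80% in either arm, not effects specific to rucaparib; the reference for percent is not stated.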 A reagent listed more than once was tested more than once; the source does not tell the runs apart. Not given: the 100% reference.

gene symbol | technical replicate | viability, normalised (%) | Outcome
SUPT16H | 1 | 77.5 | active
SUPT16H | 1 | 50.5 | active
SUPT16H | 2 | 64 | active
SUPT16H | 2 | 40.7 | active
SUPT16H | 3 | 76.6 | active
SUPT16H | 3 | 46.7 | active
DGKB | 1 | 80.6 | inactive
DGKB | 2 | 85.1 | inactive
DGKB | 3 | 42.4 | active
DEAF1 | 1 | 52.6 | active
DEAF1 | 2 | 41.9 | active
DEAF1 | 3 | 42.4 | active
SUPT3H | 1 | 56.8 | active
SUPT3H | 2 | 50.3 | active
SUPT3H | 3 | 41.9 | active
MYLK3 | 1 | 109 | inactive
MYLK3 | 2 | 63.2 | active
MYLK3 | 3 | 50.4 | active
CDK8 | 1 | 54.3 | active
CDK8 | 2 | 52.3 | active
CDK8 | 3 | 69.1 | active
DHX35 | 1 | 38.3 | active
DHX35 | 2 | 38.3 | active
DHX35 | 3 | 41.2 | active

3 of these entries, set out differently:
SUPT16H, technical replicate 3: viability, normalised (%) = 46.7; Outcome = active
DGKB, technical replicate 1: viability, normalised (%) = 80.6; Outcome = inactive
DGKB, technical replicate 2: viability, normalised (%) = 85.1; Outcome = inactive
